Laboratory results: patent US6632924B2, “Method of measuring plasma membrane targeting of GLUT4” (Whitehead Institute for Biomedical Research, priority 1999, dated 2003)
For at least one compound, name, drawing or mass did not settle the structure.

System: GLUT4 reporter (GLUT4myc7-GFP) in 3T3-L1 cells
Assay: Flow cytometry assay of GLUT4 reporter translocation to the plasma membrane in 3T3-L1 cells
Format: cell-based, murine
Conditions: for effect on insulin-triggered GLUT4 exocytosis: 10 nM wortmannin or 50 M LY294002 for 40 minutes prior to insulin addition, all stages of 3T3-L1 differentiation (Example 3); for effect on insulin-stimulated GLUT4 exocytosis: 100 nM wortmannin or 50 M LY294002 for 40 min prior to insulin (160 nM, 10 min), all days of 3T3-L1 differentiation (FIG. 3A legend)
Procedure: A GLUT4 translocation assay was carried out as follows: 3T3 L1 preadipocytes were infected with a retrovirus encoding a GLUT4 construct fused to green fluorescent protein (GFP) at its carboxy terminus, and containing seven myc epitope tags in the first exofacial loop. A population of cells expressing a narrow window of green fluorescence was isolated by fluorescence activated cell sorting (FACS). These cells were propagated and differentiated on 10 cm plates, and were reseeded on 6-well dishes the day prior to performing the GLUT4 translocation assay. Cells were serum starved for 3 hours, then stimulated or not with 160 nM insulin for 10 minutes. They were then placed on ice and washed with cold phosphate buffered saline with calcium and magnesium (PBS++). All subsequent steps were done at 4° C. Cells were incubated with anti-myc antibody (9E10), washed briefly with PBS++, and incubated with phycoerythrin-conjugated F(ab)2 antimouse IgG. Cells were washed with PBS++, resuspended using EDTA, and analysed by two color flow cytometry.
One protocol for carrying out the method of assessing translocation of modified GLUT4 is as follows: 3T3L1 cells are maintained at a subconfluent density, infected with retrovirus expression vectors which include DNA encoding modified GLUT4 and induced to differentiate into adipocytes. After being cultured (e.g., for 8-12 days) under appropriate conditions, the cells are reseeded onto plates (e.g., 6-well plates) and serum starved (e.g., for 3 or more hours). Some cells are stimulated by insulin (e.g., 160 nM, 10 minutes), placed on ice and washed at 4° C. with PBS++ (phosphate buffered saline containing calcium and magnesium). Anti-myc antibody (9E10, available from the American Type Culture Collection) is added to the cells ([…], 1 ½ hours, 4° C.). The cells are again washed with PBS++ at 4° C. and an […] labeled with a red fluorophore (R-phycoerythrin (R-PE) conjugated antimouse IgG, 50 μg/ml, 45 minutes, 4° C.) is added. Another washing with PBS++(4° C.) is carried out, the cells are suspended with EDTA and FACS (fluorescences activated cell scanning/sorting) is carried out.
Confluent cells were reseeded on the indicated day of differentiation to six well plates (Coming, Costar #3506) one day before use in experiments, and were starved in DMEM without fetal bovine serum for at least 3 hours before insulin stimulation. Insulin was used at 80 nM or 160 nM; no difference was noted between these concentrations in either 3T3-L1 or CHO cells. After treatment in the presence or absence of insulin for the times indicated in each figure, cells were quickly transferred to 4° C. and washed with cold phosphate buffered saline containing 0.9 mM Ca^++ and 0.5 mM Mg^++ (PBS++). […]

| Compound | effect on insulin-triggered GLUT4 exocytosis | effect on insulin-stimulated GLUT4 exocytosis |
| --- | --- | --- |
| O=c1cc(N2CCOCC2)oc2c(-c3ccccc3)cccc12 [LY294002, reference compound] | invariably blocked | blocked |
| COC[C@H]1OC(=O)c2coc3c2[C@@]1(C)C1=C(C3=O)[C@@H]2CCC(=O)[C@@]2(C)C[C@H]1OC(C)=O [wortmannin, reference compound] | invariably blocked | blocked |
